Results reported in the supplement of paper PMC12823440, “Inhibitors supercharge kinase turnover through native proteolytic circuits” (Nature, 2025).
Some of the results follow. Hit calls seldom repeat between salt and free forms of one compound.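 In K562 cells expressing nanoluciferase-fused kinases, luminescence was recorded at 4 h intervals between 2 and 18 h, normalized as percent of control with DMSO at 100% and a positive control at 0%. A significant (2 sigma) signal drop marks a time point as decreased. The authors' rule for a hit is not shown and takes in more than the number of time points.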

Amino acid sequences for entries named in this document (tags omitted). A change or cut given only in a name is not applied to a line headed by its entry.
UniProt P49137, whole entry, looked up: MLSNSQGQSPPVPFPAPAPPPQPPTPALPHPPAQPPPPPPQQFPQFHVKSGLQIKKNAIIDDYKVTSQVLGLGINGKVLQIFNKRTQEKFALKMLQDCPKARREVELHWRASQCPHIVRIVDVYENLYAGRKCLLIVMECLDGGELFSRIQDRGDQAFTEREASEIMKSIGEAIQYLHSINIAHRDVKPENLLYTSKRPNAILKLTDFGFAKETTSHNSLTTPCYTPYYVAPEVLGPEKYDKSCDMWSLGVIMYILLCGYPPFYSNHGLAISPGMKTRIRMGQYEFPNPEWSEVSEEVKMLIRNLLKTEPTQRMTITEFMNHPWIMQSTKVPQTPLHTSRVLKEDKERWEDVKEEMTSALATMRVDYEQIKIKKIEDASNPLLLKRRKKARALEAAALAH
UniProt Q9BUB5: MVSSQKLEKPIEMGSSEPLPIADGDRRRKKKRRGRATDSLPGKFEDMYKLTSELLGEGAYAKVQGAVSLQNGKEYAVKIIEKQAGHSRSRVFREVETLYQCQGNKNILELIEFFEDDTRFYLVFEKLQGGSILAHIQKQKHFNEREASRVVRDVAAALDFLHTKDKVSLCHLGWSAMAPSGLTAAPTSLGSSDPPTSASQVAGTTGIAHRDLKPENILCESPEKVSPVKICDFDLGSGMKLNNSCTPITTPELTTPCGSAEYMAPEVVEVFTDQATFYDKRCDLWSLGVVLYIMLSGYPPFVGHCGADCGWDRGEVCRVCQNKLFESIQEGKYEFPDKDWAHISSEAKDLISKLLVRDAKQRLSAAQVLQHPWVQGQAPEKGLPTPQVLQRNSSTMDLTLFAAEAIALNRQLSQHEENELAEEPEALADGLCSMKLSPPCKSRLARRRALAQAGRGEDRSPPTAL
UniProt Q16288, whole entry, looked up: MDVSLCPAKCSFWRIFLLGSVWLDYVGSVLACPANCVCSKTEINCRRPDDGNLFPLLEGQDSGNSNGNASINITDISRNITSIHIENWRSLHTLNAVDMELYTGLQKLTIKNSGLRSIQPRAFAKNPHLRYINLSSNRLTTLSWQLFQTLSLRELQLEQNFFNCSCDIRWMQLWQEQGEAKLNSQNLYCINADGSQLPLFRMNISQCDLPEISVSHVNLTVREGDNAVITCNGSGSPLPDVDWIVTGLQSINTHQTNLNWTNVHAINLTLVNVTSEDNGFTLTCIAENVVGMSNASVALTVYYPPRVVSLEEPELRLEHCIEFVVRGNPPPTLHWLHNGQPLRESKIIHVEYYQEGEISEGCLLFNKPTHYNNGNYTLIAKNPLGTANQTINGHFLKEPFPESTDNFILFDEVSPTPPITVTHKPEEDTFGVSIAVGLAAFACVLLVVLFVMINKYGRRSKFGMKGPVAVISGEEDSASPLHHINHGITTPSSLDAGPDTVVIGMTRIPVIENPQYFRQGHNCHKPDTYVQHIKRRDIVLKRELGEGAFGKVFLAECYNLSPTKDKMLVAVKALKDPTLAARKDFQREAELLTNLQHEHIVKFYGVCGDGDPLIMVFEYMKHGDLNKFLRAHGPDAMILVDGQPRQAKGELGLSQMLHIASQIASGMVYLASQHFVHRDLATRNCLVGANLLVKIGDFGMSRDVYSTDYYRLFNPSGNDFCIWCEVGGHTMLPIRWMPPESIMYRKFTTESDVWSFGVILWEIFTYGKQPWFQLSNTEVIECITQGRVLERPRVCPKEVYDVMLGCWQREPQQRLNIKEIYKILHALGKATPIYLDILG
UniProt O96013: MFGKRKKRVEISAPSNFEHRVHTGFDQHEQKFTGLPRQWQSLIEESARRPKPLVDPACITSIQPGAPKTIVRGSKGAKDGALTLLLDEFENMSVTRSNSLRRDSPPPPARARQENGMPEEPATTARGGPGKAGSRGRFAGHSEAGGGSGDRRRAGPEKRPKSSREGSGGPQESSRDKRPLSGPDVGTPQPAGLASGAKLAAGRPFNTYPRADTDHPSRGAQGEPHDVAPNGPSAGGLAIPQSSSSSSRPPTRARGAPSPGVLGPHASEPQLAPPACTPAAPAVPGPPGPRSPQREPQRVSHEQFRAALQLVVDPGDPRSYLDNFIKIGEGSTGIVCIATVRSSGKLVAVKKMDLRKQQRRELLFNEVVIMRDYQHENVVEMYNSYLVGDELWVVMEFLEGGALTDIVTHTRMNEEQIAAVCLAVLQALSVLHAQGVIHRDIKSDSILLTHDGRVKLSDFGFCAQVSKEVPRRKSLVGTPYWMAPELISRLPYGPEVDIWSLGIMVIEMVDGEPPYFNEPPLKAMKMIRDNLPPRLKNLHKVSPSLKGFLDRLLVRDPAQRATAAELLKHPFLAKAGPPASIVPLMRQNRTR
UniProt Q15118, whole entry, looked up: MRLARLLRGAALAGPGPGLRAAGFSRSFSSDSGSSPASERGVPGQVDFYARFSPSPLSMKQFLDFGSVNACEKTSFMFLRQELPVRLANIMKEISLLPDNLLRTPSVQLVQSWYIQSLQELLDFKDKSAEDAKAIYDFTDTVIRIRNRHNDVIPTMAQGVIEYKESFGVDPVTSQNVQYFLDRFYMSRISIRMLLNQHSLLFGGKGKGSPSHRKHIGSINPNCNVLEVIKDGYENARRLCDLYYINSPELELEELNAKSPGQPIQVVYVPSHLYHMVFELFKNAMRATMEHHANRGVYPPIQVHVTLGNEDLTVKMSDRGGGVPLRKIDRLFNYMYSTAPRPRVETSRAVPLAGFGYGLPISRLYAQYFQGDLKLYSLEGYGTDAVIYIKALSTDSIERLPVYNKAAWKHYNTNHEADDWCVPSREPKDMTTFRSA
UniProt O15530: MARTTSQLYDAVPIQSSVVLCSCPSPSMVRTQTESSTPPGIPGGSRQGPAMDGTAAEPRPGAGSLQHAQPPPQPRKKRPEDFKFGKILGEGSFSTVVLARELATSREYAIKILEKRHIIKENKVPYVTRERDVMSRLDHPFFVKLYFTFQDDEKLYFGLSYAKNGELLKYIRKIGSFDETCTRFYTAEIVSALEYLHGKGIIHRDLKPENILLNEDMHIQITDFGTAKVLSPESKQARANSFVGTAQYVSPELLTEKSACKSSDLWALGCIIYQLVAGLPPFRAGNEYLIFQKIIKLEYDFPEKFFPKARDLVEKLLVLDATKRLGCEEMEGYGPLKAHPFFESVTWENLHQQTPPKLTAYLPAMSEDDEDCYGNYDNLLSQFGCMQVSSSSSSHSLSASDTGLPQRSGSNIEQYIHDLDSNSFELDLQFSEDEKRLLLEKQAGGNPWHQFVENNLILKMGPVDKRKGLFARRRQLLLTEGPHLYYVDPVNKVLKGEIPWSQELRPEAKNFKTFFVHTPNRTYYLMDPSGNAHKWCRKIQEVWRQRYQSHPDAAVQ
UniProt P53350, whole entry: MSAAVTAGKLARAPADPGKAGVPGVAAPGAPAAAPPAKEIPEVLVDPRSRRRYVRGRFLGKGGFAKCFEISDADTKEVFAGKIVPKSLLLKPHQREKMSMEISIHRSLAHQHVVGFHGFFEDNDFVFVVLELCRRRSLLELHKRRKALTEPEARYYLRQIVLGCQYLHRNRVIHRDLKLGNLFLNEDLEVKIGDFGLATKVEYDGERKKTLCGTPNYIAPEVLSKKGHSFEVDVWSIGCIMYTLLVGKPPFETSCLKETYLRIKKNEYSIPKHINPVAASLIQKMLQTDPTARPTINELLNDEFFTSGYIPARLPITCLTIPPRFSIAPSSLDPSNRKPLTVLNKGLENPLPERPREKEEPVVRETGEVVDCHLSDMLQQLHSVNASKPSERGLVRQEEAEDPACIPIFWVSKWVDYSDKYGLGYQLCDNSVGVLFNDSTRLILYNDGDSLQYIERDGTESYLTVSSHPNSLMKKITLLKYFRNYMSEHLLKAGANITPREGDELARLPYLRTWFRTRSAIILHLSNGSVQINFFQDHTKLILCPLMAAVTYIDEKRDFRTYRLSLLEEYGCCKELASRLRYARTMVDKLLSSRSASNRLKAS
UniProt Q13131: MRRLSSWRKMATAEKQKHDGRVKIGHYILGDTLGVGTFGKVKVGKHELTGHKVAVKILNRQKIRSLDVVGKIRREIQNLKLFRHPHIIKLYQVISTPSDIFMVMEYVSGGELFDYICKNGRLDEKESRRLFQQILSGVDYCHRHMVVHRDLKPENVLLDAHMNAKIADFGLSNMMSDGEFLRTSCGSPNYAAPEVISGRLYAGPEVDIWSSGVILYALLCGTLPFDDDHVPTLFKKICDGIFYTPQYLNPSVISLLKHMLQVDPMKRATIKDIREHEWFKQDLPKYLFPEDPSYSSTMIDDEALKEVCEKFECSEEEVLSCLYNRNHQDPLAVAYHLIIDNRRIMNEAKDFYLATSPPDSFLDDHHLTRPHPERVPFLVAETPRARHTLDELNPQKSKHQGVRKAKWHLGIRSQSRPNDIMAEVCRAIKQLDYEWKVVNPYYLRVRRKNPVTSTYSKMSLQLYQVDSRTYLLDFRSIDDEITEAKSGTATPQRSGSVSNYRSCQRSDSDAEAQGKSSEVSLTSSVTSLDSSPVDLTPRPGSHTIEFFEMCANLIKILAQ
UniProt Q05397, whole entry, looked up: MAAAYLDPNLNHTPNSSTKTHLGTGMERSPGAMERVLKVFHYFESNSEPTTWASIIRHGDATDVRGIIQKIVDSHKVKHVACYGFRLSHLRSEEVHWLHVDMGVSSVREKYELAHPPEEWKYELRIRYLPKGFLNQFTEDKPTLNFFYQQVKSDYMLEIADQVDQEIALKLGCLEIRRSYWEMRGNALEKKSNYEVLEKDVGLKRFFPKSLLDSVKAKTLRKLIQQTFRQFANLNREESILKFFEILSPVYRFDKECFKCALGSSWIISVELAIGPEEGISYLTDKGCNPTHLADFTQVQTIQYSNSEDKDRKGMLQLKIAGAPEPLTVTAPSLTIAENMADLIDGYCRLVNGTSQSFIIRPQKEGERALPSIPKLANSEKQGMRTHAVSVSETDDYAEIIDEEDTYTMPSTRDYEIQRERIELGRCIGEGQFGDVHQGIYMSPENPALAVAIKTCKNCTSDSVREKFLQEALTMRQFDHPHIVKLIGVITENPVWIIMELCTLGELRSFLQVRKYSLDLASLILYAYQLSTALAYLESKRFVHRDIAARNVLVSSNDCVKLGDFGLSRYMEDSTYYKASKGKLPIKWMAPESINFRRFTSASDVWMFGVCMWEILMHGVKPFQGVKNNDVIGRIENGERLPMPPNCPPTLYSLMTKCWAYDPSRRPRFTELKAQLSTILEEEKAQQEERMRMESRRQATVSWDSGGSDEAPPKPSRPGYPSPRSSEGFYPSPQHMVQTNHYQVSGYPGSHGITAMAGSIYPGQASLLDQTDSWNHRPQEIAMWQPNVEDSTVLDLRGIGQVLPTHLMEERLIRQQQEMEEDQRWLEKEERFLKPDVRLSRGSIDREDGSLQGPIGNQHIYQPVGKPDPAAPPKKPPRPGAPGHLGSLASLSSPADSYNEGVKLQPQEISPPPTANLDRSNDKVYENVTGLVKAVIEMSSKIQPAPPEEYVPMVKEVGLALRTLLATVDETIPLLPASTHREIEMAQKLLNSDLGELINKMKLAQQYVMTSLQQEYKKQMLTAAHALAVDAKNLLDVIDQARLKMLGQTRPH
UniProt Q14289, whole entry, looked up: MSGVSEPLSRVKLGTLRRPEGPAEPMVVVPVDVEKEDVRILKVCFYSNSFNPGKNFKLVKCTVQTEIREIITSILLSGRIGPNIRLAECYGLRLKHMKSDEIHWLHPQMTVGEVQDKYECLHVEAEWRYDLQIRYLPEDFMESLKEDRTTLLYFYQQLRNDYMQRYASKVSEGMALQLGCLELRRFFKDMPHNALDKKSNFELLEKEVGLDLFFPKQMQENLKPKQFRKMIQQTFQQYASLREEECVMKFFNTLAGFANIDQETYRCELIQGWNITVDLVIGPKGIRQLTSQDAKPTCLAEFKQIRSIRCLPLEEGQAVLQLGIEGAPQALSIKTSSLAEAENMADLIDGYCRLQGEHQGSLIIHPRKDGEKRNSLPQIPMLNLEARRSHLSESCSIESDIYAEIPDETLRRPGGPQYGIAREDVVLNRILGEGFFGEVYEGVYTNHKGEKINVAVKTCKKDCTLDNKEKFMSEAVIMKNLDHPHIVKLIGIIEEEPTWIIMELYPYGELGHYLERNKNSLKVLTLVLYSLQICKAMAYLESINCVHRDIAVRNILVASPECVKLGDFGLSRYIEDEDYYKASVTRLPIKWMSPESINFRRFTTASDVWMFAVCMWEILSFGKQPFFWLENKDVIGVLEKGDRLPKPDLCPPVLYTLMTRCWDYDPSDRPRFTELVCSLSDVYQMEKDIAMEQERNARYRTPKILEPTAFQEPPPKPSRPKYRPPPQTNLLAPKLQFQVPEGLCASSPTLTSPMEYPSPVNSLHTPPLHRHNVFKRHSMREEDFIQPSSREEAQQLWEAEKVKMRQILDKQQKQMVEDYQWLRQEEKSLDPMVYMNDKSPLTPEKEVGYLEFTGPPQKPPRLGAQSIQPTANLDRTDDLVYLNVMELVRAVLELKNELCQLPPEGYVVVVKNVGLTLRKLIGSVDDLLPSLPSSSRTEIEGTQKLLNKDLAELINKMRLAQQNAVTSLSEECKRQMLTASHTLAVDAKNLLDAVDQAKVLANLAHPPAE

How the values were obtained:
Assay in all cases: kinase-Nluc reporter destabilization hit call (1 = scored as downregulated) (binary); higher = compound decreases kinase abundance
Details in all cases: K562; 2-18 h
MAPK1 = MAPK1 (UniProt P28482)
MAPK4 = MAPK4 (UniProt P31152)
MAPKAPK2 = MAPKAPK2 (UniProt P49137)
MKNK1 = MKNK1 (UniProt Q9BUB5)
NTRK2 = NTRK2 (UniProt Q16620)
NTRK3 = NTRK3 (UniProt Q16288)
PAK4 = PAK4 (UniProt O96013)
PBK = PBK (UniProt Q96KB5)
PDGFRB = PDGFRB (UniProt P09619)
PDK1 = PDK1 (UniProt Q15118)
PDPK1 = PDPK1 (UniProt O15530)
PIK4CA = PIK4CA (UniProt P42356)
PIK4CB = PIK4CB (UniProt Q9UBF8)
PLK1 = PLK1 (UniProt P53350)
PRKAA1 = PRKAA1 (UniProt Q13131)
PRKCA = PRKCA (UniProt P17252)
PTK2 = PTK2 (UniProt Q05397)
PTK2B = PTK2B (UniProt Q14289)
RAF1 = RAF1 (UniProt P04049)
[1] = biological target: RAF1_S257L (clone: RAF1_mut) (UniProt P04049)

Measured: kinase-Nluc reporter destabilization hit call

CN1CCC(c2ccccc2CC(C)(C)Nc2nc(N3CCOCC3)nc(-n3c(S(C)(=O)=O)nc4ccccc43)n2)CC1 (10 µM)
inactive: MAPK1 = 0 | MAPK4 = 0 | MAPKAPK2 = 0 | MKNK1 = 0 | NTRK2 = 0 | NTRK3 = 0 | PAK4 = 0 | PBK 0 | PDGFRB 0 | PDK1 = 0 | PDPK1 = 0 | PIK4CA 0 | PIK4CB 0 | PLK1 = 0 | PRKAA1 = 0 | PRKCA 0 | PTK2 = 0 | PTK2B 0 | RAF1 = 0 | [1] 0

CNC(=O)Nc1cc(Oc2cncc(C)c2)c(-c2ccc(OCC(C)(C)O)nc2)cn1 (2.5 µM)
inactive: MAPK1 = 0 | MAPK4 = 0 | MAPKAPK2 = 0 | MKNK1 = 0 | NTRK2 = 0 | NTRK3 = 0 | PAK4 = 0 | PBK 0 | PDGFRB 0 | PDK1 = 0 | PDPK1 = 0 | PIK4CA 0 | PIK4CB 0 | PLK1 = 0 | PRKAA1 = 0 | PRKCA 0 | PTK2 = 0 | PTK2B 0 | RAF1 = 0 | [1] 0

O=c1cc(-c2ccc(O)cc2)oc2cc(O)c([C@@H]3O[C@H](CO)[C@@H](O)[C@H](O)[C@H]3O)c(O)c12 [Isovitexin] (10 µM)
inactive: MAPK1 = 0 | MAPK4 = 0 | MAPKAPK2 = 0 | MKNK1 = 0 | NTRK2 = 0 | NTRK3 = 0 | PAK4 = 0 | PBK 0 | PDGFRB 0 | PDK1 = 0 | PDPK1 = 0 | PIK4CA 0 | PIK4CB 0 | PLK1 = 0 | PRKAA1 = 0 | PRKCA 0 | PTK2 = 0 | PTK2B 0 | RAF1 = 0 | [1] 0

CCc1nc(C(N)=O)c(Nc2ccc(N3CCC(N4CCN(C)CC4)CC3)c(OC)c2)nc1NC1CCC(OC)CC1 (stereo not given) [EML4-ALK kinase inhibitor 1] (2.5 µM)
inactive: MAPK1 = 0 | MAPK4 = 0 | MAPKAPK2 = 0 | MKNK1 = 0 | NTRK2 = 0 | NTRK3 = 0 | PAK4 = 0 | PBK 0 | PDGFRB 0 | PDK1 = 0 | PDPK1 = 0 | PIK4CA 0 | PIK4CB 0 | PLK1 = 0 | PRKAA1 = 0 | PRKCA 0 | PTK2 = 0 | PTK2B 0 | RAF1 = 0 | [1] 0

Oc1ccc2ccccc2c1SSc1c(O)ccc2ccccc12 (10 µM)
inactive: MAPK1 = 0 | MAPK4 = 0 | MAPKAPK2 = 0 | MKNK1 = 0 | NTRK2 = 0 | NTRK3 = 0 | PAK4 = 0 | PBK 0 | PDGFRB 0 | PDK1 = 0 | PDPK1 = 0 | PIK4CA 0 | PIK4CB 0 | PLK1 = 0 | PRKAA1 = 0 | PRKCA 0 | PTK2 = 0 | PTK2B 0 | RAF1 = 0 | [1] 0

O=c1ccc2cc(O)c(O)cc2o1 [Esculetin] (10 µM)
inactive: MAPK1 = 0 | MAPK4 = 0 | MAPKAPK2 = 0 | MKNK1 = 0 | NTRK2 = 0 | NTRK3 = 0 | PAK4 = 0 | PBK 0 | PDGFRB 0 | PDK1 = 0 | PDPK1 = 0 | PIK4CA 0 | PIK4CB 0 | PLK1 = 0 | PRKAA1 = 0 | PRKCA 0 | PTK2 = 0 | PTK2B 0 | RAF1 = 0 | [1] 0

C=CC(=O)N[C@H]1CCOC[C@H]1Nc1ncc2cc(-c3c(Cl)c(OC)cc(OC)c3Cl)ccc2n1 [Fisogatinib] (10 µM)
inactive: MAPK1 = 0 | MAPK4 = 0 | MAPKAPK2 = 0 | MKNK1 = 0 | NTRK2 = 0 | NTRK3 = 0 | PAK4 = 0 | PBK 0 | PDGFRB 0 | PDK1 = 0 | PDPK1 = 0 | PIK4CA 0 | PIK4CB 0 | PLK1 = 0 | PRKAA1 = 0 | PRKCA 0 | PTK2 = 0 | PTK2B 0 | RAF1 = 0 | [1] 0

COc1ncc2cc(C(=O)Nc3cc(C(=O)NCc4cccc(Cl)c4)ccc3Cl)c(=O)[nH]c2n1 (2.5 µM)
inactive: MAPK1 = 0 | MAPK4 = 0 | MAPKAPK2 = 0 | MKNK1 = 0 | NTRK2 = 0 | NTRK3 = 0 | PAK4 = 0 | PBK 0 | PDGFRB 0 | PDK1 = 0 | PDPK1 = 0 | PIK4CA 0 | PIK4CB 0 | PLK1 = 0 | PRKAA1 = 0 | PRKCA 0 | PTK2 = 0 | PTK2B 0 | RAF1 = 0 | [1] 0

C[C@H](Nc1ccc2c(c1)OCCn1cc(N3C(=O)OC[C@H]3C(F)F)nc1-2)C(N)=O (10 µM)
inactive: MAPK1 = 0 | MAPK4 = 0 | MAPKAPK2 = 0 | MKNK1 = 0 | NTRK2 = 0 | NTRK3 = 0 | PAK4 = 0 | PBK 0 | PDGFRB 0 | PDK1 = 0 | PDPK1 = 0 | PIK4CA 0 | PIK4CB 0 | PLK1 = 0 | PRKAA1 = 0 | PRKCA 0 | PTK2 = 0 | PTK2B 0 | RAF1 = 0 | [1] 0

O=C(c1ccc(NS(=O)(=O)c2cccc3cccnc23)cc1)N1CCN(CC2CC2)CC1 [Mitapivat] (10 µM)
inactive: MAPK1 = 0 | MAPK4 = 0 | MAPKAPK2 = 0 | MKNK1 = 0 | NTRK2 = 0 | NTRK3 = 0 | PAK4 = 0 | PBK 0 | PDGFRB 0 | PDK1 = 0 | PDPK1 = 0 | PIK4CA 0 | PIK4CB 0 | PLK1 = 0 | PRKAA1 = 0 | PRKCA 0 | PTK2 = 0 | PTK2B 0 | RAF1 = 0 | [1] 0

CC1=C(C(=O)Nc2ccc3[nH]ncc3c2)C(c2ccc(F)c(C(=O)NCc3ccccn3)c2)NC(=O)N1 (stereo not given) (10 µM)
inactive: MAPK1 = 0 | MAPK4 = 0 | MAPKAPK2 = 0 | MKNK1 = 0 | NTRK2 = 0 | NTRK3 = 0 | PAK4 = 0 | PBK 0 | PDGFRB 0 | PDK1 = 0 | PDPK1 = 0 | PIK4CA 0 | PIK4CB 0 | PLK1 = 0 | PRKAA1 = 0 | PRKCA 0 | PTK2 = 0 | PTK2B 0 | RAF1 = 0 | [1] 0

NC(=O)c1nc(-c2c(F)cccc2Cl)oc1Nc1ccc(C(=O)N2CCOCC2)cc1 (10 µM)
inactive: MAPK1 = 0 | MAPK4 = 0 | MAPKAPK2 = 0 | MKNK1 = 0 | NTRK2 = 0 | NTRK3 = 0 | PAK4 = 0 | PBK 0 | PDGFRB 0 | PDK1 = 0 | PDPK1 = 0 | PIK4CA 0 | PIK4CB 0 | PLK1 = 0 | PRKAA1 = 0 | PRKCA 0 | PTK2 = 0 | PTK2B 0 | RAF1 = 0 | [1] 0

CN(C/C=C/C(=O)Nc1ccc(C(=O)Nc2cccc(Nc3ncc(Cl)c(-c4c[nH]c5ccccc45)n3)c2)cc1)CCCNC(=O)NCCOCCOCCOCCNC(=O)CCCC[C@@H]1SC[C@@H]2NC(=O)N[C@@H]21 (2.5 µM)
inactive: MAPK1 = 0 | MAPK4 = 0 | MAPKAPK2 = 0 | MKNK1 = 0 | NTRK2 = 0 | NTRK3 = 0 | PAK4 = 0 | PBK 0 | PDGFRB 0 | PDK1 = 0 | PDPK1 = 0 | PIK4CA 0 | PIK4CB 0 | PLK1 = 0 | PRKAA1 = 0 | PRKCA 0 | PTK2 = 0 | PTK2B 0 | RAF1 = 0 | [1] 0

CNC(=O)c1nnc(NC(=O)C2CC2)cc1Nc1cccc(-c2ncn(C)n2)c1OC [Deucravacitinib] (10 µM)
inactive: MAPK1 = 0 | MAPK4 = 0 | MAPKAPK2 = 0 | MKNK1 = 0 | NTRK2 = 0 | NTRK3 = 0 | PAK4 = 0 | PBK 0 | PDGFRB 0 | PDK1 = 0 | PDPK1 = 0 | PIK4CA 0 | PIK4CB 0 | PLK1 = 0 | PRKAA1 = 0 | PRKCA 0 | PTK2 = 0 | PTK2B 0 | RAF1 = 0 | [1] 0

O=C1NC(=O)C(c2ccccc2[N+](=O)[O-])=C1Nc1ccc(O)c(Cl)c1 (10 µM)
inactive: MAPK1 = 0 | MAPK4 = 0 | MAPKAPK2 = 0 | MKNK1 = 0 | NTRK2 = 0 | NTRK3 = 0 | PAK4 = 0 | PBK 0 | PDGFRB 0 | PDK1 = 0 | PDPK1 = 0 | PIK4CA 0 | PIK4CB 0 | PLK1 = 0 | PRKAA1 = 0 | PRKCA 0 | PTK2 = 0 | PTK2B 0 | RAF1 = 0 | [1] 0

COC(=O)[C@]1(C)CC[C@]2(C(=O)O[C@@H]3O[C@H](CO)[C@@H](O)[C@H](O)[C@H]3O)CC[C@]3(C)C(=CC[C@@H]4[C@@]5(C)C[C@H](O)[C@H](O[C@@H]6OC[C@@H](O[C@@H]7O[C@H](CO)[C@@H](O)[C@H](O)[C@H]7O)[C@H](O)[C@H]6O)[C@@](C)(CO)C5CC[C@]43C)[C@H]2C1 (stereo not given in full) [Esculentoside H] (10 µM)
inactive: MAPK1 = 0 | MAPK4 = 0 | MAPKAPK2 = 0 | MKNK1 = 0 | NTRK2 = 0 | NTRK3 = 0 | PAK4 = 0 | PBK 0 | PDGFRB 0 | PDK1 = 0 | PDPK1 = 0 | PIK4CA 0 | PIK4CB 0 | PLK1 = 0 | PRKAA1 = 0 | PRKCA 0 | PTK2 = 0 | PTK2B 0 | RAF1 = 0 | [1] 0

Cn1cc(-c2cn3nccc3c(-c3cnn([C@]4(CC#N)C[C@@H](C#N)C4)c3)n2)cn1 (10 µM)
inactive: MAPK1 = 0 | MAPK4 = 0 | MAPKAPK2 = 0 | MKNK1 = 0 | NTRK2 = 0 | NTRK3 = 0 | PAK4 = 0 | PBK 0 | PDGFRB 0 | PDK1 = 0 | PDPK1 = 0 | PIK4CA 0 | PIK4CB 0 | PLK1 = 0 | PRKAA1 = 0 | PRKCA 0 | PTK2 = 0 | PTK2B 0 | RAF1 = 0 | [1] 0

O=c1cc(-c2ccc(O)cc2)oc2cc(O)c(O)c(O)c12 [Scutellarein] (10 µM)
inactive: MAPK1 = 0 | MAPK4 = 0 | MAPKAPK2 = 0 | MKNK1 = 0 | NTRK2 = 0 | NTRK3 = 0 | PAK4 = 0 | PBK 0 | PDGFRB 0 | PDK1 = 0 | PDPK1 = 0 | PIK4CA 0 | PIK4CB 0 | PLK1 = 0 | PRKAA1 = 0 | PRKCA 0 | PTK2 = 0 | PTK2B 0 | RAF1 = 0 | [1] 0

Sorted by heavy-atom count (rising): some entries from above.
O=c1cc(-c2ccc(O)cc2)oc2cc(O)c(O)c(O)c12 [Scutellarein] (10 µM)
inactive: MAPK1 = 0 | MAPK4 = 0 | MAPKAPK2 = 0 | MKNK1 = 0 | NTRK2 = 0 | NTRK3 = 0 | PAK4 = 0 | PBK 0 | PDGFRB 0 | PDK1 = 0 | PDPK1 = 0 | PIK4CA 0 | PIK4CB 0 | PLK1 = 0 | PRKAA1 = 0 | PRKCA 0 | PTK2 = 0 | PTK2B 0 | RAF1 = 0 | [1] 0

O=C1NC(=O)C(c2ccccc2[N+](=O)[O-])=C1Nc1ccc(O)c(Cl)c1 (10 µM)
inactive: MAPK1 = 0 | MAPK4 = 0 | MAPKAPK2 = 0 | MKNK1 = 0 | NTRK2 = 0 | NTRK3 = 0 | PAK4 = 0 | PBK 0 | PDGFRB 0 | PDK1 = 0 | PDPK1 = 0 | PIK4CA 0 | PIK4CB 0 | PLK1 = 0 | PRKAA1 = 0 | PRKCA 0 | PTK2 = 0 | PTK2B 0 | RAF1 = 0 | [1] 0

CNC(=O)c1nnc(NC(=O)C2CC2)cc1Nc1cccc(-c2ncn(C)n2)c1OC [Deucravacitinib] (10 µM)
inactive: MAPK1 = 0 | MAPK4 = 0 | MAPKAPK2 = 0 | MKNK1 = 0 | NTRK2 = 0 | NTRK3 = 0 | PAK4 = 0 | PBK 0 | PDGFRB 0 | PDK1 = 0 | PDPK1 = 0 | PIK4CA 0 | PIK4CB 0 | PLK1 = 0 | PRKAA1 = 0 | PRKCA 0 | PTK2 = 0 | PTK2B 0 | RAF1 = 0 | [1] 0
